Measurements: the supplement of paper PMC10849652
The other results are listed elsewhere or left out.

By UniProt entry, the sequences of proteins in these tests, tags left out. Where a name states a change or a piece, a line headed by the entry shows the natural chain unless it says otherwise.
UniProt Q68CR1: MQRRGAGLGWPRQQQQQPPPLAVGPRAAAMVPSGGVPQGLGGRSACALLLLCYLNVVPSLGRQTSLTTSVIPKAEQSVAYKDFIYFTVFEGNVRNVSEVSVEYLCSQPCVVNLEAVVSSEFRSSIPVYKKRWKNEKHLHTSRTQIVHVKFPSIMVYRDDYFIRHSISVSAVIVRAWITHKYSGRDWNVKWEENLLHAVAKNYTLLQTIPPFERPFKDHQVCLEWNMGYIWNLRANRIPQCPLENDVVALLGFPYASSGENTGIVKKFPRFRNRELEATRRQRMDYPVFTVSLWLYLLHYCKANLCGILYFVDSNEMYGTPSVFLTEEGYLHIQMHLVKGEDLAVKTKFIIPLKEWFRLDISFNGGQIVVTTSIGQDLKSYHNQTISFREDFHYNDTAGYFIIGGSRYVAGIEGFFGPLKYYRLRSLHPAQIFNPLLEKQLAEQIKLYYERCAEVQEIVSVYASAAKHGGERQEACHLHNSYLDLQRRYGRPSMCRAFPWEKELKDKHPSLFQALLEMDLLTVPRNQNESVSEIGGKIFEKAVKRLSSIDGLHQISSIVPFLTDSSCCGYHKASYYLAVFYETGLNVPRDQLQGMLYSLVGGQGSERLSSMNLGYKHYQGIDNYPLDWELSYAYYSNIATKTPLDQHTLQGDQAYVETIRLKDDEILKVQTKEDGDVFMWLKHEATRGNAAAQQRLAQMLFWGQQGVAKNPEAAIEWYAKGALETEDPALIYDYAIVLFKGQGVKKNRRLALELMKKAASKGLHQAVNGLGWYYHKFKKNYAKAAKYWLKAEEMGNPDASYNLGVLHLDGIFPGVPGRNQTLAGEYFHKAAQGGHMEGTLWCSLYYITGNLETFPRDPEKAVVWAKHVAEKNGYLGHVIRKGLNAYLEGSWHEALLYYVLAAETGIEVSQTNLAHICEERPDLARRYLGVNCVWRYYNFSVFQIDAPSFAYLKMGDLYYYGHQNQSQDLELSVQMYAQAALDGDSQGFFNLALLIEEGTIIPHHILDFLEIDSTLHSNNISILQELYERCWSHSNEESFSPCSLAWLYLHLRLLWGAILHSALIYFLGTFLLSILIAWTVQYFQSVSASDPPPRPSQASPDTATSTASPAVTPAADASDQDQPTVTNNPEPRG
UniProt O75880: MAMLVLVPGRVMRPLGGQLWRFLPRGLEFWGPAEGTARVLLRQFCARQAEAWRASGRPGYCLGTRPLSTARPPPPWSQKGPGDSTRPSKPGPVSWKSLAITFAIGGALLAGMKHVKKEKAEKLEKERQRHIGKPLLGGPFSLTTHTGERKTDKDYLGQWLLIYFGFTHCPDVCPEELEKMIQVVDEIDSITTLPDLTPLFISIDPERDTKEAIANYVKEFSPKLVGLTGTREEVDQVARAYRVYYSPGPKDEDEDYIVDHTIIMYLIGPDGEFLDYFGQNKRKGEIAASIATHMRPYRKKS
UniProt O00560: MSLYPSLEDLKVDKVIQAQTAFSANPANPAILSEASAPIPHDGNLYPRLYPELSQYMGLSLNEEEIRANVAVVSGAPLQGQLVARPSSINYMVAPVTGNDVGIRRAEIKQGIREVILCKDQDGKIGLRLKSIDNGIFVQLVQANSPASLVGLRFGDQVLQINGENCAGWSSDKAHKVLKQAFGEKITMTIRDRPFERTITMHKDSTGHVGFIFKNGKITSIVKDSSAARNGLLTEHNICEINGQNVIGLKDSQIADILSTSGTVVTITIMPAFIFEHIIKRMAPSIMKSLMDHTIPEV
UniProt Q9NX18: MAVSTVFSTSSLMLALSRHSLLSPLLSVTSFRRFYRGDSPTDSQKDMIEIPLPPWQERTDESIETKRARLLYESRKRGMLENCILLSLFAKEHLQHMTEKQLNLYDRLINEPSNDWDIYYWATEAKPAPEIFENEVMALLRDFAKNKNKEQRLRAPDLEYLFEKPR
UniProt Q96HI0: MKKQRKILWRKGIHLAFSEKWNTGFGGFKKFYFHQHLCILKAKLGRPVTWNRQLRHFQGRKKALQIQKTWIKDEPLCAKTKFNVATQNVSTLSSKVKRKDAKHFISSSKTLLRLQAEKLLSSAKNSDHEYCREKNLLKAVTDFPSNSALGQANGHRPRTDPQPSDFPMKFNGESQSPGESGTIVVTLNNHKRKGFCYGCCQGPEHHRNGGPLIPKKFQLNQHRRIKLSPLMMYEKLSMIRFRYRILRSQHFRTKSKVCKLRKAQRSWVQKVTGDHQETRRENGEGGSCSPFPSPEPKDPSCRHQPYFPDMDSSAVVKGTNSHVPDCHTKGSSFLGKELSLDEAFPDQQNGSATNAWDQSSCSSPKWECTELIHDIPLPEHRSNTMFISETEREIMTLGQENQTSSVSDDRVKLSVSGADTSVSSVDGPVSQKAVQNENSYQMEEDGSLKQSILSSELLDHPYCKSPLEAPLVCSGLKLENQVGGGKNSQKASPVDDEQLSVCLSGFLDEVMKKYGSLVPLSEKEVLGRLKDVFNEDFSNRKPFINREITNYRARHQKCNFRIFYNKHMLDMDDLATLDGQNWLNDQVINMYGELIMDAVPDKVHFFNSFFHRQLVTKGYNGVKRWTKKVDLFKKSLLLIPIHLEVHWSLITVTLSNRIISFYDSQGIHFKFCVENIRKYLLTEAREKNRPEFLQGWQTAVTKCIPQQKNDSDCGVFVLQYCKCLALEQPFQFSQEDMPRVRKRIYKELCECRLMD
UniProt Q6UVJ0: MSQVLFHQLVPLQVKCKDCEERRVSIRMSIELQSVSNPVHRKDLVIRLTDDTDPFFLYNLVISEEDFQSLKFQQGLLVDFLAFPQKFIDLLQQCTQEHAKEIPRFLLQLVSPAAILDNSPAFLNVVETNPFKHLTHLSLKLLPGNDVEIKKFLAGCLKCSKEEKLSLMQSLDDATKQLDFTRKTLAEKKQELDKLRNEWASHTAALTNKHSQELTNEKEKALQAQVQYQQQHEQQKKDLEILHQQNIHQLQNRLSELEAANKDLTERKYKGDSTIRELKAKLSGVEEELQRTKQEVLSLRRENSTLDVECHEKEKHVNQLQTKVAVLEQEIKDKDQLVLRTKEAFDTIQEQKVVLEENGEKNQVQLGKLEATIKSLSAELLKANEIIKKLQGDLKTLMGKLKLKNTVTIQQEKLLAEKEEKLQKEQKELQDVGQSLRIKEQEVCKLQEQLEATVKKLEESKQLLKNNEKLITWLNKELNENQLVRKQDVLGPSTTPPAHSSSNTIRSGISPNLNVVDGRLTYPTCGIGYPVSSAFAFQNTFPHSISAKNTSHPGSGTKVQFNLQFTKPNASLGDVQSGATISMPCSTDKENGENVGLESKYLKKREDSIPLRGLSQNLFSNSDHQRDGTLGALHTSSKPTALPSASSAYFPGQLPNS
UniProt Q9Y3Z3: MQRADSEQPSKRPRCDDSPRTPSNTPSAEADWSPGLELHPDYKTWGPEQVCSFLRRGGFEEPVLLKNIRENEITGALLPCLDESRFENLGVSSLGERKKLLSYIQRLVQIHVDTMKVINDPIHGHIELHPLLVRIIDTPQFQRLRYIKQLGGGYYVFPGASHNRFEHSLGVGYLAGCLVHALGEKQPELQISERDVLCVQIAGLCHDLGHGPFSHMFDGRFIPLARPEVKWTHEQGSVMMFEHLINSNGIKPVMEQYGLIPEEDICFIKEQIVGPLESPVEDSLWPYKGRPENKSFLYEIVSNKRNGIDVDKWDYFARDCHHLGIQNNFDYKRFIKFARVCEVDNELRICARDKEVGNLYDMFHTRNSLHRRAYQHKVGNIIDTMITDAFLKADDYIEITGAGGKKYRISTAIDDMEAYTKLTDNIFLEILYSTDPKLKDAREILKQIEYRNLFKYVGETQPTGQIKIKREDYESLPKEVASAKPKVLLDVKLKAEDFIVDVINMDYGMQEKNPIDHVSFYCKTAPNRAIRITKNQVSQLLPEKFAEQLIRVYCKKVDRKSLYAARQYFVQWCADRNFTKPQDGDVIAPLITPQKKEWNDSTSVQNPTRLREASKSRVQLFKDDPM
UniProt Q96LD8: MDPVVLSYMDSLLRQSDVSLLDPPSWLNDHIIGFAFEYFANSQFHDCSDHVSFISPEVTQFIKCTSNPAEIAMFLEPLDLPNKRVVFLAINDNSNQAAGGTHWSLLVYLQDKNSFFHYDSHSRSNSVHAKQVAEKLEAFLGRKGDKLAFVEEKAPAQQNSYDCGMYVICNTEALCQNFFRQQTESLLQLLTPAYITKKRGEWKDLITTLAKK
UniProt Q92599: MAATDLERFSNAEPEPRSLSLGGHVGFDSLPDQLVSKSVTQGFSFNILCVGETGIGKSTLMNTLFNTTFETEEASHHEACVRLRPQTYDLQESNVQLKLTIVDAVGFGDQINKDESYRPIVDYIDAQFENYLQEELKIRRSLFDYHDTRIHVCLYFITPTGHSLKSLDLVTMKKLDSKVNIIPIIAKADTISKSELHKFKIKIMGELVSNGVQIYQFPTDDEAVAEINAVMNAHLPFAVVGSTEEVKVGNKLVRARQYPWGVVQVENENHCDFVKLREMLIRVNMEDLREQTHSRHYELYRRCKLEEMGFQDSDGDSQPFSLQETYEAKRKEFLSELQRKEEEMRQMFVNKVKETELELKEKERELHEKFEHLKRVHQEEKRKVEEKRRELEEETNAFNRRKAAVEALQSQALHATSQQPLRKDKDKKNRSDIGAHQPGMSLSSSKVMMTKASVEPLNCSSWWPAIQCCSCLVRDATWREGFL
UniProt P49903: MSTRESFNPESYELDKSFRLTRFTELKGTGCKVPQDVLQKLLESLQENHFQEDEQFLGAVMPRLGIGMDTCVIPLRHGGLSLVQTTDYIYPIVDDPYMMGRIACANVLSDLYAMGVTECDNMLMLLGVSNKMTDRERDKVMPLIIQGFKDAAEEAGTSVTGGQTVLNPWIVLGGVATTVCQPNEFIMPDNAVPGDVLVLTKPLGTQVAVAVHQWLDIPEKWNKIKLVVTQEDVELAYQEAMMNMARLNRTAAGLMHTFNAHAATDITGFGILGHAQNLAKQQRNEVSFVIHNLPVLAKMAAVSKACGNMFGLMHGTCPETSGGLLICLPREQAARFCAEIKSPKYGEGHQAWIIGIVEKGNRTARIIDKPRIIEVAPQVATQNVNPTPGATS
UniProt Q9BW04: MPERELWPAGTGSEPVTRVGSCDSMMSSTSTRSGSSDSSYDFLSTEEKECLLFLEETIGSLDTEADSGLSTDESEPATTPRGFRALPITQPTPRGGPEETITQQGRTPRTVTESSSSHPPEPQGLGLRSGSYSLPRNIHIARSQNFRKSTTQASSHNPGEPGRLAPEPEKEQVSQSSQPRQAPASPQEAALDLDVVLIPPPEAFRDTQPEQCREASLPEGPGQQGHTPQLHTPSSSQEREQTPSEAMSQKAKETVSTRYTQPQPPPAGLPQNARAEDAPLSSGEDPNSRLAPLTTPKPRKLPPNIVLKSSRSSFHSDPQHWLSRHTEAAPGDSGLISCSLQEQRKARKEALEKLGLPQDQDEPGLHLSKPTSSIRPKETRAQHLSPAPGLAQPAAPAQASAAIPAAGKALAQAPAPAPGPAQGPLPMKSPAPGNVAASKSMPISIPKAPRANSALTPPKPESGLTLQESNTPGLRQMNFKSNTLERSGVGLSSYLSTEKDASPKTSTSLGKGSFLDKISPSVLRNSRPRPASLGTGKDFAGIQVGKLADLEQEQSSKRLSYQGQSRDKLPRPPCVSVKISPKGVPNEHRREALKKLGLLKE
UniProt Q9UHD8: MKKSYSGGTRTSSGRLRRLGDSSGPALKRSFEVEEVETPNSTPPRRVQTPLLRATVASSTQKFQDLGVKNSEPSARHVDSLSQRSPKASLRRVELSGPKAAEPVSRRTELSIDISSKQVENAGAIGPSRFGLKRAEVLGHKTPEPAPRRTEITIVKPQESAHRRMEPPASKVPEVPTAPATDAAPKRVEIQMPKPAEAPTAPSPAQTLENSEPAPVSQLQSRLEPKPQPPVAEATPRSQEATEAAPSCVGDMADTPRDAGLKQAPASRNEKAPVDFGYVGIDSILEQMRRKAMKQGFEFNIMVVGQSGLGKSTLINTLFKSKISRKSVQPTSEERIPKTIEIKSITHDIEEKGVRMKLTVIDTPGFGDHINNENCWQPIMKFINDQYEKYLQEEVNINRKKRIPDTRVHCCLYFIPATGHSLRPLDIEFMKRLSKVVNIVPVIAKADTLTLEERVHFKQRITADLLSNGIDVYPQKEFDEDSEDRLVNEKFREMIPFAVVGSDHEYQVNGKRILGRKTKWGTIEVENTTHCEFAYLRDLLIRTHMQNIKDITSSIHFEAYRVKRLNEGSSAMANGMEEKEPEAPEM
UniProt Q9UBE0: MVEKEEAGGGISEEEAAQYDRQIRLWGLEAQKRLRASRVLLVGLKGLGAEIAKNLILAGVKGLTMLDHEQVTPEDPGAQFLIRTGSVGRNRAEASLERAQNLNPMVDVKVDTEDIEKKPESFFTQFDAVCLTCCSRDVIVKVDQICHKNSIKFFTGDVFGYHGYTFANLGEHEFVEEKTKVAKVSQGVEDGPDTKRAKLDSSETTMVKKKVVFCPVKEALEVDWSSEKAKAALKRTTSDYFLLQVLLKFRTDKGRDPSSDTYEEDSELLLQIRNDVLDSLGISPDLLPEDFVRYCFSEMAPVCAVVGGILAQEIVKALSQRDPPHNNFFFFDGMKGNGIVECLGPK

Columns and labels:
Assay in all cases: log2 fold change, soluble protein after heating vs DMSO (PISA); higher = thermal stabilisation; K562 lysate, 10 uM; active = over 0.2 and 3.5 SD of the protein, either way, in both replicates (recomputed)
erlotinib = compound: C#Cc1cccc(Nc2ncnc3cc(OCCOC)c(OCCOC)cc23)c1 [erlotinib]
In short: (§1)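 Thermal stability, expressed as log-two fold change relative to solvent controls, is given from duplicates. Crude K562 extract in PBS pH 7.4 with 1 mM MgCl2, at 1 mg/mL protein, was treated with 10 μM compound for 30 min and heated in aliquots for 3 min across 48°C-58°C. After pooling, adjustment to 0.5% NP-40 at 4°C and centrifugation at 21,000xg for 90 min, supernatant protein was measured by TMTpro 16plex LC-MS/MS with channel sums equalised.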

[1] = compound: C/C(=N\NC(=O)C1=CC(=CC=C1)S(=O)(=O)N2CCOCC2)/C3=C(C=CC(=C3)Cl)O
In short: as §1

[2] = compound: C1=CC(=CC=C1C2=NC3=C(N2)C=C(C=C3)C(=O)N)OC4=CC=C(C=C4)Cl
In short: as §1

[3] = compound: C1=CC2=C(C=CC(=C2)/C=C\3/C(=O)NC(=NCC4=CC=CS4)S3)N=C1
In short: as §1

[4] = compound: C1=CC2=NC=CN=C2C=C1/C=C/3\C(=O)NC(=O)S3
In short: as §1

[5] = compound: C1=CC=C(C=C1)C2=NC(=C(N2)C3=CC=NC=C3)C4=CC(=C(C=C4)Cl)O
In short: as §1

[6] = compound: C1=CC=C2C(=C1)C3=NNC4=CC=CC(=C43)C2=O
In short: as §1

[7] = compound: C1CCN(C1)C(=O)NC2=CC=CC(=C2)NC3=NC=C(C(=N3)NCCC4=CN=CN4)Br
In short: as §1

[8] = compound: C1CN(CCC1(CC2=CC=C(C=C2)Cl)N)C3=NC=NC4=C3C=CN4
In short: as §1

IRAK-1-4 Inhibitor I = compound: C1COCCN1CCN2C3=CC=CC=C3N=C2NC(=O)C4=CC(=CC=C4)[N+](=O)[O-] [IRAK-1-4 Inhibitor I]
In short: as §1

Measured: log2 fold change

SEC23IP (UniProt Q9Y6Y8)
inactive: erlotinib 0.014 | [1] -0.081 | [2] 0.051 | [3] 0.039 | [4] -0.007 | [5] -0.031 | [6] -0.029 | [7] -0.031 | [8] -0.006 | IRAK-1-4 Inhibitor I 0.015

SEL1L3 (UniProt Q68CR1)
inactive: erlotinib 0.001 | [1] 0.108 | [2] -0.016 | [3] 0.015 | [4] 0.028 | [5] -0.01 | [6] -0.087 | [7] 0 | [8] 0.004 | IRAK-1-4 Inhibitor I -0.019

SCO1 (UniProt O75880)
inactive: erlotinib 0.008 | [1] -0.06 | [2] 0.036 | [3] -0.014 | [4] 0.011 | [5] 0.012 | [6] -0.045 | [7] 0.033 | [8] 0.068 | IRAK-1-4 Inhibitor I 0.006

SDCBP (UniProt O00560)
inactive: erlotinib -0.049 | [1] 0.05 | [2] 0 | [3] -0.005 | [4] 0.026 | [5] 0.021 | [6] 0.099 | [7] -0.037 | [8] -0.006 | IRAK-1-4 Inhibitor I 0.047

SEC24D isoform 2 (UniProt O94855)
inactive: erlotinib 0.016 | [1] 0.04 | [2] 0.012 | [3] 0.008 | [4] 0.032 | [5] 0.022 | [6] 0.001 | [7] -0.013 | [8] 0.004 | IRAK-1-4 Inhibitor I -0.002

SCAF8 (UniProt Q9UPN6)
inactive: erlotinib 0.067 | [1] 0.005 | [2] 0.039 | [3] -0.011 | [4] -0.051 | [5] -0.027 | [6] 0.007 | [7] -0.051 | [8] 0.015 | IRAK-1-4 Inhibitor I 0.002

SEC24B isoform 3 (UniProt O95487)
inactive: erlotinib 0.012 | [1] 0.035 | [2] 0.003 | [3] 0.043 | [4] 0.022 | [5] -0.019 | [6] 0.021 | [7] -0.007 | [8] 0.056 | IRAK-1-4 Inhibitor I 0.026

SDHAF2 (UniProt Q9NX18)
inactive: erlotinib 0.057 | [1] -0.055 | [2] 0.018 | [3] -0.006 | [4] -0.114 | [5] -0.02 | [6] -0.007 | [7] 0.009 | [8] 0.015 | IRAK-1-4 Inhibitor I 0.044

SENP5 (UniProt Q96HI0)
inactive: erlotinib -0.001 | [1] -0.053 | [2] 0 | [3] -0.077 | [4] 0.039 | [5] 0.05 | [6] 0.068 | [7] -0.056 | [8] -0.134 | IRAK-1-4 Inhibitor I 0.018

SENP6 (UniProt Q9GZR1)
inactive: erlotinib 0.131 | [1] -0.464 | [2] -0.002 | [3] 0.039 | [4] -0.026 | [5] 0.043 | [6] -0.057 | [7] -0.047 | [8] 0.034 | IRAK-1-4 Inhibitor I 0.011

SCFD2 (UniProt Q8WU76)
inactive: erlotinib 0.033 | [1] -0.008 | [2] 0.006 | [3] -0.018 | [4] 0.014 | [5] -0.008 | [6] -0.057 | [7] -0.021 | [8] 0.049 | IRAK-1-4 Inhibitor I -0.001

SDAD1 (UniProt Q9NVU7)
inactive: erlotinib -0.035 | [1] 0.001 | [2] -0.029 | [3] 0.016 | [4] -0.041 | [5] 0.021 | [6] 0.014 | [7] 0.029 | [8] -0.003 | IRAK-1-4 Inhibitor I -0.022

SASS6 (UniProt Q6UVJ0)
inactive: erlotinib 0.024 | [1] 0.016 | [2] 0.028 | [3] -0.019 | [4] -0.009 | [5] 0.015 | [6] -0.023 | [7] -0.012 | [8] 0 | IRAK-1-4 Inhibitor I -0.021

SCAMP2 (UniProt O15127)
inactive: erlotinib -0.054 | [1] 0.061 | [2] 0.03 | [3] -0.018 | [4] -0.013 | [5] 0.009 | [6] -0.02 | [7] -0.097 | [8] 0.111 | IRAK-1-4 Inhibitor I 0.029

SEPTIN7 (UniProt Q16181)
inactive: erlotinib -0.013 | [1] 0.018 | [2] 0.017 | [3] 0.003 | [4] 0.011 | [5] 0 | [6] 0.09 | [7] 0.001 | [8] -0.006 | IRAK-1-4 Inhibitor I 0.001

SAMHD1 (UniProt Q9Y3Z3)
inactive: erlotinib 0.035 | [1] 0.036 | [2] 0.004 | [3] 0.015 | [4] 0.005 | [5] -0.021 | [6] -0.057 | [7] -0.065 | [8] 0.035 | IRAK-1-4 Inhibitor I 0.013

SENP8 (UniProt Q96LD8)
inactive: erlotinib -0.03 | [1] 0.061 | [2] 0.034 | [3] 0.031 | [4] 0.044 | [5] -0.042 | [6] -0.136 | [7] 0.07 | [8] -0.081 | IRAK-1-4 Inhibitor I -0.023

SEPTIN8 (UniProt Q92599)
inactive: erlotinib 0.042 | [1] -0.11 | [2] 0 | [3] -0.016 | [4] -0.009 | [5] 0.006 | [6] 0.057 | [7] 0.01 | [8] 0.001 | IRAK-1-4 Inhibitor I -0.009

SCPEP1 (UniProt Q9HB40)
inactive: erlotinib 0.021 | [1] 0.072 | [2] -0.043 | [3] 0.022 | [4] 0.009 | [5] 0.017 | [6] -0.03 | [7] 0.17 | [8] -0.027 | IRAK-1-4 Inhibitor I -0.002

SEC23A (UniProt Q15436)
inactive: erlotinib 0.041 | [1] 0.011 | [2] 0.036 | [3] 0.037 | [4] 0.002 | [5] -0.011 | [6] -0.014 | [7] -0.044 | [8] -0.01 | IRAK-1-4 Inhibitor I 0

2 consecutive entries from above, quoted:
SENP6 (UniProt Q9GZR1)
inactive: erlotinib 0.131 | [1] -0.464 | [2] -0.002 | [3] 0.039 | [4] -0.026 | [5] 0.043 | [6] -0.057 | [7] -0.047 | [8] 0.034 | IRAK-1-4 Inhibitor I 0.011

SCFD2 (UniProt Q8WU76)
inactive: erlotinib 0.033 | [1] -0.008 | [2] 0.006 | [3] -0.018 | [4] 0.014 | [5] -0.008 | [6] -0.057 | [7] -0.021 | [8] 0.049 | IRAK-1-4 Inhibitor I -0.001

Next part:

SCD (UniProt O00767)
inactive: erlotinib 0.075 | [1] -0.093 | [2] 0.027 | [3] 0.056 | [4] -0.012 | [5] 0.009 | [6] 0.011 | [7] -0.24 | [8] -0.021 | IRAK-1-4 Inhibitor I 0.07

SCP2 (UniProt P22307)
inactive: erlotinib -0.009 | [1] 0.055 | [2] 0.032 | [3] 0.001 | [4] -0.011 | [5] 0.014 | [6] 0 | [7] -0.017 | [8] 0.021 | IRAK-1-4 Inhibitor I 0.018

SAMD4A (UniProt Q9UPU9)
inactive: erlotinib -0.172 | [1] -0.014 | [2] 0.11 | [3] 0.097 | [4] -0.153 | [5] 0.11 | [6] -0.041 | [7] -0.046 | [8] 0.013 | IRAK-1-4 Inhibitor I 0.063

SDHB (UniProt P21912)
inactive: erlotinib 0.009 | [1] 0.165 | [2] 0.086 | [3] -0.003 | [4] -0.02 | [5] 0 | [6] 0.075 | [7] -0.006 | [8] 0.011 | IRAK-1-4 Inhibitor I 0.001

SEPHS1 (UniProt P49903)
inactive: erlotinib -0.002 | [1] -0.015 | [2] 0.032 | [3] -0.036 | [4] 0.003 | [5] 0.015 | [6] 0.003 | [7] 0.01 | [8] 0.042 | IRAK-1-4 Inhibitor I 0.034

SARG (UniProt Q9BW04)
inactive: erlotinib 0.017 | [1] 0.093 | [2] 0.055 | [3] -0.114 | [4] -0.004 | [5] -0.003 | [6] -0.156 | [7] 0 | [8] 0.007 | IRAK-1-4 Inhibitor I 0.002

SEPTIN9 (UniProt Q9UHD8)
inactive: erlotinib -0.005 | [1] 0.004 | [2] 0.001 | [3] 0.003 | [4] -0.02 | [5] -0.012 | [6] 0.101 | [7] 0.008 | [8] -0.01 | IRAK-1-4 Inhibitor I 0.005

SAE1 (UniProt Q9UBE0)
inactive: erlotinib -0.014 | [1] -0.079 | [2] 0 | [3] -0.016 | [4] 0.004 | [5] -0.01 | [6] 0.012 | [7] 0.001 | [8] -0.005 | IRAK-1-4 Inhibitor I -0.001

SEC24A (UniProt O95486)
inactive: erlotinib 0.042 | [1] 0.044 | [2] 0.059 | [3] 0.047 | [4] -0.015 | [5] -0.03 | [6] -0.032 | [7] -0.013 | [8] -0.005 | IRAK-1-4 Inhibitor I -0.01

SEMA4C (UniProt Q9C0C4)
inactive: erlotinib -0.005 | [1] -0.037 | [2] 0.034 | [3] -0.012 | [4] 0.027 | [5] -0.008 | [6] -0.079 | [7] -0.038 | [8] 0.021 | IRAK-1-4 Inhibitor I 0.086
